# Laboratory results taken from US20250072422A1, “ARYLCYCLOHEXANEDIONE DERIVATIVE OR SALT THEREOF, PEST CONTROL AGENT CONTAINING SAID COMPOUND, AND METHOD FOR USING SAME” (ADEKA Corporation, priority 2021, published 2025).
# Some entries share one result that the patent states for a list of compounds. At least one structure is not confirmed: it was looked up by name or label, or the drawing left a doubt.
# Test system: Dirofilaria immitis
# Assay: Influence evaluation test on the growth of Dirofilaria immitis
# Format: cell-based
# Conditions: final concentration 10 μM, 24-well plate, seven days
row,Compound,development inhibition rate from the L3 stage larva to the L4-stage larva
1,O=C(Nc1ccc(F)cc1)C1=C(O)CC(c2ccc(C(F)(F)F)cc2)C2(CC2)C1=O (stereo not shown) [1-24],not less than 50%
2,Cc1ccc(C2CC(O)=C(C(=O)Nc3ccc(F)cc3)C(=O)C23CCCCC3)cc1 (stereo not shown) [1-125],not less than 50%
3,CC1(C)C(=O)C(C(=S)Nc2ccc(F)cc2)=C(O)CC1c1ccc(C(F)(F)F)cc1 (stereo not shown) [1-20],not less than 50%
4,O=C(Nc1ccc([N+](=O)[O-])cc1)C1=C(O)CC(c2ccc(C(F)(F)F)cc2)C2(CCCCC2)C1=O (stereo not shown) [1-118],not less than 50%
5,O=C1CC2c3ccc(C(F)(F)F)cc3CCC2C(O)=C1C(=O)Nc1ccc(F)cc1 (stereo not shown) [2-2],not less than 50%
6,O=C(Nc1ccc(F)cc1F)C1=C(O)CC(c2ccc(C(F)(F)F)cc2)C2(CCCCC2)C1=O (stereo not shown) [1-116],not less than 50%
7,O=C(Nc1ccc(F)cc1)C1=C(O)CC(c2ccc(C(F)(F)F)cc2)C2(CCCCC2)C1=O (stereo not shown) [1-30],not less than 50%
8,CC1C(=O)C(C(=O)Nc2ccc(F)cc2)=C(O)CC1c1ccc(C(F)(F)F)cc1 (stereo not shown) [1-1],not less than 50%
9,Cl.O=C1C(C(=S)Nc2ccc(F)cc2)=C(O)CC(c2ccc(C(F)(F)F)cc2)C12CCNCC2 (stereo not shown) [1-95],not less than 50%
10,O=C1C(C(=S)Nc2ccc(F)cc2)=C(O)CC(c2ccc(C(F)(F)F)cc2)C1c1ccccc1 (stereo not shown) [1-16],not less than 50%
11,CC(C)(C)OC(=O)N1CCC2(CC1)C(=O)C(C(=S)Nc1ccc(F)cc1)=C(O)CC2c1ccc(C(F)(F)F)cc1 (stereo not shown) [1-92],not less than 50%
12,CC1(C)C(=O)C(C(=O)Nc2ccc(F)cc2)=C(O)CC1c1ccc(C(F)(F)F)cc1 (stereo not shown) [1-9],not less than 50%
13,O=C(Nc1ccc(F)cc1)C1=C(O)CC(c2ccc(Cl)cc2)C2(CCCCC2)C1=O (stereo not shown) [1-126],not less than 50%
14,C[S+]([O-])c1ccc(NC(=O)C2=C(O)CC(c3ccc(C(F)(F)F)cc3)C3(CCCCC3)C2=O)cc1 (stereo not shown) [1-34],not less than 50%
15,CC1(C)C(=O)C(C(=O)Nc2ccc(F)cn2)=C(O)CC1c1ccc(C(F)(F)F)cn1 (stereo not shown) [1-141],not less than 50%
16,CC(C)(C)OC(=O)N1CCC2(CC1)C(=O)C(C(=O)Nc1ccc(F)cc1)=C(O)CC2c1ccc(C(F)(F)F)cc1 (stereo not shown) [1-135],not less than 50%
17,O=C(Nc1ccc([S+]([O-])C(F)(F)F)cc1)C1=C(O)CC(c2ccc(C(F)(F)F)cc2)C2(CCCCC2)C1=O (stereo not shown) [1-36],not less than 50%
18,Cl.O=C(Nc1ccc(F)cc1)C1=C(O)CC(c2ccc(C(F)(F)F)cc2)C2(CCNCC2)C1=O (stereo not shown) [1-136],not less than 50%
19,CC1(C)C(=O)C(C(=O)Nc2ccc(F)nc2)=C(O)CC1c1ccc(Br)cn1 (stereo not shown) [1-143],not less than 50%

row,Compound,development inhibition rate from the L3 stage larva to the L4-stage larva
1,CC1C(=O)C(C(=O)Nc2ccc(F)cc2)=C(O)C2CCc3cc(C(F)(F)F)ccc3C12 (stereo not shown) [2-4],not less than 50%
2,CS(=O)(=O)c1ccc(NC(=O)C2=C(O)CC(c3ccc(C(F)(F)F)cc3)C3(CCCCC3)C2=O)cc1 (stereo not shown) [1-35],not less than 50%
3,CC1(C)C(=O)C(C(=O)Nc2ccnc(F)c2)=C(O)CC1c1ccc(Br)cn1 (stereo not shown) [1-144],not less than 50%
4,CC1(C)C(=O)C(C(=O)Nc2ccc(F)cn2)=C(O)CC1c1ccc(Br)cn1 (stereo not shown) [1-142],not less than 50%
5,CC1C(=O)C(C(=O)Nc2ccc(F)cc2)=C(O)CC1(C)c1ccc(C(F)(F)F)cc1 (stereo not shown) [1-3],not less than 50%
6,C#CCC1C(=O)C(C(=S)Nc2ccc(F)cc2)=C(O)CC1c1ccc(C(F)(F)F)cc1 (stereo not shown) [1-18],not less than 50%
7,CCOC(=O)c1ccc(NC(=O)C2=C(O)CC(c3ccc(C(F)(F)F)cc3)C3(CCCCC3)C2=O)cc1 (stereo not shown) [1-134],not less than 50%
8,N#Cc1ccc(C2CC(O)=C(C(=O)Nc3ccc(F)cc3)C(=O)C23CCCCC3)cc1 (stereo not shown) [1-127],not less than 50%
9,O=C1C(C(=S)Nc2ccc(F)cc2)=C(O)CC(c2ccc(C(F)(F)F)cc2)C12CCCCC2 (stereo not shown) [1-52],not less than 50%
10,O=C(Nc1ccc(F)cc1)C1=C(O)CC(c2ccc(C(F)(F)F)cc2)C(c2ccccc2)C1=O (stereo not shown) [1-6],not less than 50%
11,O=C1C(C(=S)Nc2ccc(F)cc2)=C(O)CC(c2ccc(C(F)(F)F)cc2)C12CC2 (stereo not shown) [1-46],not less than 50%
12,O=C(Nc1ccc(F)cc1)C1=C(O)CC(c2ccc(C(F)(F)F)cc2)C2(CCC2)C1=O (stereo not shown) [1-25],not less than 50%
13,O=C(Nc1ccc(F)cc1)C1=C(O)CC(c2ccc(C(F)(F)F)cc2)C(Cc2ccccc2)C1=O (stereo not shown) [1-5],not less than 50%
14,CC(=O)N1CCC2(CC1)C(=O)C(C(=S)Nc1ccc(F)cc1)=C(O)CC2c1ccc(C(F)(F)F)cc1 (stereo not shown) [1-96],not less than 50%
15,O=C1C(C(=S)Nc2ccc(F)cc2)=C(O)CC(c2ccc(C(F)(F)F)cc2)C12CCC2 (stereo not shown) [1-47],not less than 50%
16,O=C(Nc1ccc(F)cc1)C1=C(O)CC(c2ccc(C(F)(F)F)cc2)C2(CCOCC2)C1=O (stereo not shown) [1-45],not less than 50%
17,CC12CCc3cc(C(F)(F)F)ccc3C1CC(=O)C(C(=O)Nc1ccc(C(F)(F)F)cc1)=C2O (stereo not shown) [2-3],not less than 50%
18,O=C1C(C(=S)Nc2ccc(F)cc2)=C(O)CC(c2ccc(C(F)(F)F)cc2)C12CCOCC2 (stereo not shown) [1-93],not less than 50%
